Assay [1] concerns the target MYC-tagged MAVS (mitochondrial antiviral signaling protein), full-length (human (cDNA from A549 cells)) (UniProt Q7Z434). Description: co-IP; HEK293T cells co-transfected with the tagged plasmids for 24 h; lysates precipitated overnight at 4°C with anti-HA or anti-MYC magnetic beads; washed three times with TENT buffer; blots with HA and MYC antibodies.
Assay [2] deals with T1, RIG-I (retinoic acid-inducible gene 1), endogenous (human (endogenous in A549)) (UniProt O95786).
T1 sequence: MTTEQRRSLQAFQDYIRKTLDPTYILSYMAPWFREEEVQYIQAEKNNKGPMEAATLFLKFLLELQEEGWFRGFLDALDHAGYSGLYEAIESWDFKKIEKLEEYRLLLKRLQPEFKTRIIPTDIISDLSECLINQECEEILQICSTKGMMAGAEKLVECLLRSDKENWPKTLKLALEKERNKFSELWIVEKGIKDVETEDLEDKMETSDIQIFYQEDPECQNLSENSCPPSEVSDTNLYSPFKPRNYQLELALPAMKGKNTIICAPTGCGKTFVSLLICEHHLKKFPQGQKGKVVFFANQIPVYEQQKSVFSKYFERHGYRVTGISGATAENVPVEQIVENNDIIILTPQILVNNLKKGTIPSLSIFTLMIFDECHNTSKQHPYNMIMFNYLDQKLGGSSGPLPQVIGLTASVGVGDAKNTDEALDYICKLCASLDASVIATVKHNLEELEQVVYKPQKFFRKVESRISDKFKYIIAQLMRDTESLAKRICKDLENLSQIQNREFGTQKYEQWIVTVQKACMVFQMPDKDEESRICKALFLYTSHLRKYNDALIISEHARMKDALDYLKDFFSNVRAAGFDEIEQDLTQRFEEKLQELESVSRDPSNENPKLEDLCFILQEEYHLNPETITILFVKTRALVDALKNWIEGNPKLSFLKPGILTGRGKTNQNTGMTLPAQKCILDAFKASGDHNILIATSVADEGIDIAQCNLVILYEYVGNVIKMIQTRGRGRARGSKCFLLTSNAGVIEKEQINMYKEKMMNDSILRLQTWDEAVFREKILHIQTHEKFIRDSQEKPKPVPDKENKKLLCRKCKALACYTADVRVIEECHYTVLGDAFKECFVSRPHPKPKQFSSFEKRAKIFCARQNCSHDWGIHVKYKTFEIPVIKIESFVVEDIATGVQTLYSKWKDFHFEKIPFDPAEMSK
Description: co-IP; endogenous proteins; A549 cells transfected with poly(I:C)-H, poly(I:C)-L or poly(dA:dT); lysates precipitated with RIG-I antibody or isotype control overnight at 4°C, Protein A magnetic beads 4 h; washed with TENT buffer; immunoblot. On the technique in general: Immunoblotting shows a protein as a band on a membrane.

Protein sequences, listed by entry. Tags and fused reporters are not part of them.
UniProt Q7Z434: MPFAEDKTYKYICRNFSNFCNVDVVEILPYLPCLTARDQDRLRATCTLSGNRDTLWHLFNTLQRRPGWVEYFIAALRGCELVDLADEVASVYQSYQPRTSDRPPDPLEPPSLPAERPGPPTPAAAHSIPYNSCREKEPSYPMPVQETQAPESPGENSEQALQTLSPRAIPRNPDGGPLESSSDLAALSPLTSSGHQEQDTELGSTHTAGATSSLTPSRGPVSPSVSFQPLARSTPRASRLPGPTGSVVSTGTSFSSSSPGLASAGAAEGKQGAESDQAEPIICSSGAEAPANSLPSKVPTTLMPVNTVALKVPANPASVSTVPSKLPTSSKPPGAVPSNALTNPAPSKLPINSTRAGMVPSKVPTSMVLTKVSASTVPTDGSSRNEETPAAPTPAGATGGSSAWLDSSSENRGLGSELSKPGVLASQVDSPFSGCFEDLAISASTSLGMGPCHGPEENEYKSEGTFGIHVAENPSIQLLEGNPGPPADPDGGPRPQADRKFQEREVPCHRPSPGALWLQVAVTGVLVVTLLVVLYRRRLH

The target of assay [3] is T2, HA-tagged RIG-I (retinoic acid-inducible gene 1) (UniProt O95786).
T2 sequence: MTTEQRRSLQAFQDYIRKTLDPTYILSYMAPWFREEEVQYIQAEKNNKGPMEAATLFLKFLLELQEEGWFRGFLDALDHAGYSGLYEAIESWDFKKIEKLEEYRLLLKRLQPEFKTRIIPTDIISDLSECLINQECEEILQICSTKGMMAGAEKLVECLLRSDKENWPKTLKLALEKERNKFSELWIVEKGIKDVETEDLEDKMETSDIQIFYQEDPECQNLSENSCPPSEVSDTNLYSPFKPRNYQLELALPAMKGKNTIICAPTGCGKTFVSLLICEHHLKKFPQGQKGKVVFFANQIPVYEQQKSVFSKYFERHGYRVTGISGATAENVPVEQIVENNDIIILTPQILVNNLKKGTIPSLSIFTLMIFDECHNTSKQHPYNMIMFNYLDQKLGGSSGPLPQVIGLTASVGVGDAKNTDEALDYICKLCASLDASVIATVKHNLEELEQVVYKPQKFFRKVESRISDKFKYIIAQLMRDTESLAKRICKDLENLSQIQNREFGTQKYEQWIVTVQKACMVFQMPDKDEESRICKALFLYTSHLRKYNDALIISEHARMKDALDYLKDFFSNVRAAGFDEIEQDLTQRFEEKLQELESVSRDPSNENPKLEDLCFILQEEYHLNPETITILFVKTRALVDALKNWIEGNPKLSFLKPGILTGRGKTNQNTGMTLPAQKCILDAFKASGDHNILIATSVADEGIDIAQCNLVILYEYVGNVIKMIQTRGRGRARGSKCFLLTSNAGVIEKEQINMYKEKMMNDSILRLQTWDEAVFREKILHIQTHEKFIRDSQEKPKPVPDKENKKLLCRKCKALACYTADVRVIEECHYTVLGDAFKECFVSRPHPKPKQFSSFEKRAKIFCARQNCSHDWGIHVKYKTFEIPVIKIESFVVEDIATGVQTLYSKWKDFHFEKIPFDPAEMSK
Nature of the assay: co-IP; HEK293T cells co-transfected with the tagged plasmids for 24 h; lysates precipitated overnight at 4°C with anti-HA or anti-MYC magnetic beads; washed three times with TENT buffer; blots with HA and MYC antibodies.

No constants are given. Whether binding was seen depends on the method and setting. In cells and extracts the contact can be indirect. Some binding calls cover weakened binding; strength is not graded here. For part of these data: Tags and fused reporters may be left off the sequences shown.

B1: HA-tagged DHX35 (DEAH (Asp-Glu-Ala-His) box polypeptide 35), full-length (protein, UniProt Q9H5Z1 1-703)
chain: MAAPVGPVKFWRPGTEGPGVSISEERQSLAENSGTTVVYNPYAALSIEQQRQKLPVFKLRNHILYLIENYQTVVIVGETGCGKSTQIPQYLAEAGWTAEGRVVGVTQPRRVAAVTVAGRVAEERGAVLGHEVGYCIRFDDCTDQLATRIKFLTDGMLVREMMVDPLLTKYSVIMLDEAHERTLYTDIAIGLLKKIQKKRGDLRLIVASATLDADKFRDFFNQNETSDPARDTCVILTVEGRTFPVDIFYLQSPVPDYIKSTVETVVKIHQTEGDGDVLAFLTGQEEVETVVSMLIEQARALARTGMKRHLRVLPMYAGLPSFEQMKVFERVSRSVRKVIVATNVAETSITISGIVYVIDCGFVKLRAYNPRTAIECLVVVPVSQASANQRAGRGGRSRSGKCYRLYTEEAFDKLPQSTVPEMQRSNLAPVILQLKALGIDNVLRFHFMSPPPAQSMVQALELLYALGGLDKDCRLTEPLGMRIAEFPLNPMFAKMLLESGNFGCSQEILSIAAMMQIQNIFVVPPNQKSHAIRVHRKFAVEEGDHLTMLNIYEAFIKHNKDSKWCQEHFLNYKGLVRAATVREQLKKLLVKFQVPRKSSEGDPDLVLRCIVSGFFANAARFHSTGAYRTIRDDHELHIHPASVLYAEKPPRWVIYNEVIQTSKYYMRDVTAIESAWLLELAPHFYQQGTHLSLKAKRAKVQDP
For B1, the binding entry in assay [1] is recorded as “binds”.

B2: DHX35 (DEAH box polypeptide 35), endogenous (protein, UniProt Q9H5Z1 1-703)
chain: MAAPVGPVKFWRPGTEGPGVSISEERQSLAENSGTTVVYNPYAALSIEQQRQKLPVFKLRNHILYLIENYQTVVIVGETGCGKSTQIPQYLAEAGWTAEGRVVGVTQPRRVAAVTVAGRVAEERGAVLGHEVGYCIRFDDCTDQLATRIKFLTDGMLVREMMVDPLLTKYSVIMLDEAHERTLYTDIAIGLLKKIQKKRGDLRLIVASATLDADKFRDFFNQNETSDPARDTCVILTVEGRTFPVDIFYLQSPVPDYIKSTVETVVKIHQTEGDGDVLAFLTGQEEVETVVSMLIEQARALARTGMKRHLRVLPMYAGLPSFEQMKVFERVSRSVRKVIVATNVAETSITISGIVYVIDCGFVKLRAYNPRTAIECLVVVPVSQASANQRAGRGGRSRSGKCYRLYTEEAFDKLPQSTVPEMQRSNLAPVILQLKALGIDNVLRFHFMSPPPAQSMVQALELLYALGGLDKDCRLTEPLGMRIAEFPLNPMFAKMLLESGNFGCSQEILSIAAMMQIQNIFVVPPNQKSHAIRVHRKFAVEEGDHLTMLNIYEAFIKHNKDSKWCQEHFLNYKGLVRAATVREQLKKLLVKFQVPRKSSEGDPDLVLRCIVSGFFANAARFHSTGAYRTIRDDHELHIHPASVLYAEKPPRWVIYNEVIQTSKYYMRDVTAIESAWLLELAPHFYQQGTHLSLKAKRAKVQDP
As to B2, the binding result in assay [2] is reported as “binds”.

B3: MYC-tagged DHX35, full-length (protein, UniProt Q9H5Z1 1-703)
chain: MAAPVGPVKFWRPGTEGPGVSISEERQSLAENSGTTVVYNPYAALSIEQQRQKLPVFKLRNHILYLIENYQTVVIVGETGCGKSTQIPQYLAEAGWTAEGRVVGVTQPRRVAAVTVAGRVAEERGAVLGHEVGYCIRFDDCTDQLATRIKFLTDGMLVREMMVDPLLTKYSVIMLDEAHERTLYTDIAIGLLKKIQKKRGDLRLIVASATLDADKFRDFFNQNETSDPARDTCVILTVEGRTFPVDIFYLQSPVPDYIKSTVETVVKIHQTEGDGDVLAFLTGQEEVETVVSMLIEQARALARTGMKRHLRVLPMYAGLPSFEQMKVFERVSRSVRKVIVATNVAETSITISGIVYVIDCGFVKLRAYNPRTAIECLVVVPVSQASANQRAGRGGRSRSGKCYRLYTEEAFDKLPQSTVPEMQRSNLAPVILQLKALGIDNVLRFHFMSPPPAQSMVQALELLYALGGLDKDCRLTEPLGMRIAEFPLNPMFAKMLLESGNFGCSQEILSIAAMMQIQNIFVVPPNQKSHAIRVHRKFAVEEGDHLTMLNIYEAFIKHNKDSKWCQEHFLNYKGLVRAATVREQLKKLLVKFQVPRKSSEGDPDLVLRCIVSGFFANAARFHSTGAYRTIRDDHELHIHPASVLYAEKPPRWVIYNEVIQTSKYYMRDVTAIESAWLLELAPHFYQQGTHLSLKAKRAKVQDP
As for B3, the binding result in assay [3] is listed as “binds”.

For the origin of these results see PMC11262647.
